The other results are listed elsewhere or left out.
How the values were obtained:
Assay in all cases: NMR binding call after quantification (hit when 2 of 3 NMR criteria are met) (binary (1 = binding, 0 = not binding)); higher = binding
Conditions in all cases: RNA concentration 10 µM; fragment concentration 200 µM; 293 K
[1] = system: SARS-CoV-2 5'-UTR RNA
[2] = system: SARS-CoV-2 5_SL1 RNA
[3] = system: SARS-CoV-2 5_SL1234 RNA
[4] = system: SARS-CoV-2 5_SL2+3 RNA
[5] = system: SARS-CoV-2 5_SL4 RNA
[6] = system: SARS-CoV-2 5_SL5 RNA
[7] = system: SARS-CoV-2 5_SL5a RNA
[8] = system: SARS-CoV-2 5_SL5b+c RNA
[9] = system: SARS-CoV-2 5_SL5stem RNA
[10] = system: SARS-CoV-2 5_SL6 RNA

Measured: NMR binding call

Cc1cccc(Nc2ncnc3c2cnn3C)c1
0: [1] | [2] | [3] | [4] | [5] | [6] | [7] | [8] | [9] | [10]

CN(C)C(=O)Nc1ccc(S(N)(=O)=O)cc1
0: [1] | [2] | [3] | [4] | [5] | [6] | [7] | [8] | [9] | [10]

CN(C)C(=O)CNc1ccccc1
0: [1] | [2] | [3] | [4] | [5] | [6] | [7] | [8] | [9] | [10]

COc1cccc(C(=O)Nc2ccccc2F)c1
0: [1] | [2] | [3] | [4] | [5] | [6] | [7] | [8] | [9] | [10]

CN1CCN(S(=O)(=O)N(C)C)CC1
0: [1] | [2] | [3] | [4] | [5] | [6] | [7] | [8] | [9] | [10]

CC(O)CNC(=O)Nc1ccccc1 (stereo not given)
0: [1] | [2] | [3] | [4] | [5] | [6] | [7] | [8] | [9] | [10]

Cc1csc(NC(=O)C2CCOCC2)n1
0: [1] | [2] | [3] | [4] | [5] | [6] | [7] | [8] | [9] | [10]

Cc1ncsc1C(=O)N1CCCNCC1.Cl.Cl
0: [1] | [2] | [3] | [4] | [5] | [6] | [7] | [8] | [9] | [10]

CN(CCO)S(=O)(=O)c1ccc(N)cc1
0: [1] | [2] | [3] | [4] | [5] | [6] | [7] | [8] | [9] | [10]

COC(=O)Nc1nc2c(C)cccc2s1
0: [1] | [2] | [3] | [4] | [5] | [6] | [7] | [8] | [9] | [10]

CC(C)(C)C1CCN(C(=O)c2ccccc2)CC1
0: [1] | [2] | [3] | [4] | [5] | [6] | [7] | [8] | [9] | [10]

N#Cc1ccc(CNCc2ccc(F)cc2)cc1
0: [1] | [2] | [3] | [4] | [5] | [6] | [7] | [8] | [9] | [10]

O=C(O)c1ccc(OCc2ccccc2)cc1
0: [1] | [2] | [3] | [4] | [5] | [6] | [7] | [8] | [9] | [10]

CCOc1ccc(C(=O)Nc2cc(C)on2)cc1
0: [1] | [2] | [3] | [4] | [5] | [6] | [7] | [8] | [9] | [10]

NC(=O)c1cnc(C(F)(F)F)nc1
0: [1] | [2] | [3] | [4] | [5] | [6] | [7] | [8] | [9] | [10]

CC(=O)NCc1cncs1
0: [1] | [2] | [3] | [4] | [5] | [6] | [7] | [8] | [9] | [10]

Cc1csc(CNC(=O)C2CCC2)n1
0: [1] | [2] | [3] | [4] | [5] | [6] | [7] | [8] | [9] | [10]

NC(=O)C1CCN(C(=O)C2CCCCC2)CC1
0: [1] | [2] | [3] | [4] | [5] | [6] | [7] | [8] | [9] | [10]

CC1CN(Cc2nnsc2Cl)C(C)CO1 (stereo not given)
0: [1] | [2] | [3] | [4] | [5] | [6] | [7] | [8] | [9] | [10]

COc1cccc(CN2CCC(C(N)=O)CC2)c1
0: [1] | [2] | [3] | [4] | [5] | [6] | [7] | [8] | [9] | [10]

CC(=O)N1CCN(CCCc2ccccc2)CC1
0: [1] | [2] | [3] | [4] | [5] | [6] | [7] | [8] | [9] | [10]

CCC(=O)Nc1ccc2[nH]c(=O)[nH]c2c1
0: [1] | [2] | [3] | [4] | [5] | [6] | [7] | [8] | [9] | [10]

Reprinted from above (7 entries):
CC(O)CNC(=O)Nc1ccccc1 (stereo not given)
0: [1] | [2] | [3] | [4] | [5] | [6] | [7] | [8] | [9] | [10]

Cc1csc(NC(=O)C2CCOCC2)n1
0: [1] | [2] | [3] | [4] | [5] | [6] | [7] | [8] | [9] | [10]

Cc1ncsc1C(=O)N1CCCNCC1.Cl.Cl
0: [1] | [2] | [3] | [4] | [5] | [6] | [7] | [8] | [9] | [10]

CN(CCO)S(=O)(=O)c1ccc(N)cc1
0: [1] | [2] | [3] | [4] | [5] | [6] | [7] | [8] | [9] | [10]

COC(=O)Nc1nc2c(C)cccc2s1
0: [1] | [2] | [3] | [4] | [5] | [6] | [7] | [8] | [9] | [10]

CC(C)(C)C1CCN(C(=O)c2ccccc2)CC1
0: [1] | [2] | [3] | [4] | [5] | [6] | [7] | [8] | [9] | [10]

N#Cc1ccc(CNCc2ccc(F)cc2)cc1
0: [1] | [2] | [3] | [4] | [5] | [6] | [7] | [8] | [9] | [10]

(more compounds)

Cc1cc(C2CCCN2S(C)(=O)=O)no1 (stereo not given)
0: [1] | [2] | [3] | [4] | [5] | [6] | [7] | [8] | [9] | [10]

CC(C)N(C)c1ncnc2c1cnn2C
0: [1] | [2] | [3] | [4] | [5] | [6] | [7] | [8] | [9] | [10]

COc1ccc(CNC(=O)c2cnccn2)cc1
0: [1] | [2] | [3] | [4] | [5] | [6] | [7] | [8] | [9] | [10]

Nc1ccccc1N1CCOCC1
0: [1] | [2] | [3] | [4] | [5] | [6] | [7] | [8] | [9] | [10]

CNC(=O)c1ccc(S(N)(=O)=O)cc1
0: [1] | [2] | [3] | [4] | [5] | [6] | [7] | [8] | [9] | [10]
